Test results as given in the supplement of paper PMC8007513.
The other results are listed elsewhere or left out. Most values come without repeats; read them as rough.

System: Saccharomyces cerevisiae BY4743
Assay: growth (OD600) with compound + IPBC relative to untreated control; higher = less growth inhibition
Settings: compound concentration: 133 uM; IPBC concentration: 0.5 ug/ml; 20 h
Method: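 NMCCC compounds (133 uM) combined with IPBC (0.5 ug/ml) against Saccharomyces cerevisiae BY4743 in YPD, 96-well plates. Growth was read as OD600 at 20 h and expressed as % of the untreated control. Single pass.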

| Compound | growth [%] |
| --- | --- |
| O=C(NCC(c1ccco1)S(=O)(=O)c1cccs1)C(=O)NC1CCCCC1 (centres undefined) + CCCCNC(=O)OCC#CI [3-iodo-2-propynyl butylcarbamate (IPBC)] | 89 |
| CCN(CC)S(=O)(=O)c1ccc(Cl)c(NC(=O)COc2ncnc3sccc23)c1 + CCCCNC(=O)OCC#CI [3-iodo-2-propynyl butylcarbamate (IPBC)] | 95.7 |
| Cn1c(CN2CCOCC2)c(C#N)c2ccccc21 + CCCCNC(=O)OCC#CI [3-iodo-2-propynyl butylcarbamate (IPBC)] | 88.8 |
| CCC1=CC=C(C=C1)C2=N[NH]C(=N2)SC\C3=C\C(=O)\C(=C/O3)O + CCCCNC(=O)OCC#CI [3-iodo-2-propynyl butylcarbamate (IPBC)] | 95.1 |
| COc1cc(Br)c(OC)c(C(=O)NCc2c(C)nn(-c3ccccc3)c2C)c1 + CCCCNC(=O)OCC#CI [3-iodo-2-propynyl butylcarbamate (IPBC)] | 94.9 |
| N#Cc1ccc(NC(=O)COCC(=O)NCc2ccco2)cc1 + CCCCNC(=O)OCC#CI [3-iodo-2-propynyl butylcarbamate (IPBC)] | 77.6 |
| COc1ccc(Cl)cc1-c1n[nH]c(SCC(=O)NC(C)(C#N)C(C)C)n1 (centres undefined) + CCCCNC(=O)OCC#CI [3-iodo-2-propynyl butylcarbamate (IPBC)] | 109 |
| COc1ccc(C2c3cc(OC)c(OC)cc3CCN2C(=O)C(C)(C)C)cc1OC (centres undefined) + CCCCNC(=O)OCC#CI [3-iodo-2-propynyl butylcarbamate (IPBC)] | 99 |
| CCn1c(SCc2cc(C)on2)nnc1C1CC1 + CCCCNC(=O)OCC#CI [3-iodo-2-propynyl butylcarbamate (IPBC)] | 95.8 |
